Results on two molecules are retold here after paper PMC9245577.

By UniProt entry, the sequences of proteins in these tests, tags left out. Where a name states a change or a piece, a line headed by the entry shows the natural chain unless it says otherwise.
UniProt Q43128: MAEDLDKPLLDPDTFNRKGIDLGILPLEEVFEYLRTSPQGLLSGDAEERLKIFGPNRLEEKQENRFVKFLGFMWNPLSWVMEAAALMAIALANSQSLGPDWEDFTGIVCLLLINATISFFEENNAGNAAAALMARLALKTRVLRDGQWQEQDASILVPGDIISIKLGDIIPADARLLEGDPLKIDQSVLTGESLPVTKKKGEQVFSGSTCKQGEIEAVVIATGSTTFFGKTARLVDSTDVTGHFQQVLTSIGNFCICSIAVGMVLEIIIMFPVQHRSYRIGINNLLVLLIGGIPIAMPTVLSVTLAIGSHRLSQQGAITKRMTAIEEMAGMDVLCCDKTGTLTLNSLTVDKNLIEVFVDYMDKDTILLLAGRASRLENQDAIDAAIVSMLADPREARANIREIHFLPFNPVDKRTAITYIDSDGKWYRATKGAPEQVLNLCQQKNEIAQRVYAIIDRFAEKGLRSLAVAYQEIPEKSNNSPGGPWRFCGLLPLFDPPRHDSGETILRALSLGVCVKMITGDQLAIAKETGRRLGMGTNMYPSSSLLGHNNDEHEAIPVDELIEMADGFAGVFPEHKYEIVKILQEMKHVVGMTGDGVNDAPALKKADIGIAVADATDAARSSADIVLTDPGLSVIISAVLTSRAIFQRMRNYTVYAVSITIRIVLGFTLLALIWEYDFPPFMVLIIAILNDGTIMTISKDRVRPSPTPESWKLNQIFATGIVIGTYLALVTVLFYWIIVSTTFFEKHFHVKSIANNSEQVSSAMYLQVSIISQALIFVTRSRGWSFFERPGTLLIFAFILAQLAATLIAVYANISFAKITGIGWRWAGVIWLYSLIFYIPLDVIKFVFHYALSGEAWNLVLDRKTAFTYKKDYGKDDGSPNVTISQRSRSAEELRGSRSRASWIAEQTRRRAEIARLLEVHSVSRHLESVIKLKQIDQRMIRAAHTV
UniProt Q42556: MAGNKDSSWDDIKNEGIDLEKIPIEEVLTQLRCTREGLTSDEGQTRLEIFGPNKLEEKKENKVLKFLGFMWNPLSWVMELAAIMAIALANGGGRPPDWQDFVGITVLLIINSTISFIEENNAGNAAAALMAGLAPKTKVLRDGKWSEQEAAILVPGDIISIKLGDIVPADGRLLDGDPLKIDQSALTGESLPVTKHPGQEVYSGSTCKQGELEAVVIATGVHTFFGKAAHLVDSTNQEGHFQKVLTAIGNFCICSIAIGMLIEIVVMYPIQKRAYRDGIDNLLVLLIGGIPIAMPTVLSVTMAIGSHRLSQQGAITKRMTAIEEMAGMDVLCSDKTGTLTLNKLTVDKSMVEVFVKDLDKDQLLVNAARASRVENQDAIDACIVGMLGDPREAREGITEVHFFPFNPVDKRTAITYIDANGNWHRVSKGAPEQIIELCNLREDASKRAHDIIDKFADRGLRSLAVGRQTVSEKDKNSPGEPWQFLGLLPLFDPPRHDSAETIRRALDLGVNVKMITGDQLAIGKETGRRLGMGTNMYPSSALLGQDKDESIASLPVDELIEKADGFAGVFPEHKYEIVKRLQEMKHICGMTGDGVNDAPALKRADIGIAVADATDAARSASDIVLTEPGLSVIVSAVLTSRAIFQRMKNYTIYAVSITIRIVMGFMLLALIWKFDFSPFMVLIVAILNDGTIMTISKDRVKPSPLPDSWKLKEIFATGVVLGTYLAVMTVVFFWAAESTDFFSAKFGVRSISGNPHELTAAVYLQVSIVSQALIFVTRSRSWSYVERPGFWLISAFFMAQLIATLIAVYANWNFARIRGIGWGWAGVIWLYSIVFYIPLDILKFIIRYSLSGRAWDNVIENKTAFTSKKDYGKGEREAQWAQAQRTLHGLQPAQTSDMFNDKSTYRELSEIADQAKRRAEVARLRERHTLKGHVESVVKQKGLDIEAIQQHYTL
UniProt P20431: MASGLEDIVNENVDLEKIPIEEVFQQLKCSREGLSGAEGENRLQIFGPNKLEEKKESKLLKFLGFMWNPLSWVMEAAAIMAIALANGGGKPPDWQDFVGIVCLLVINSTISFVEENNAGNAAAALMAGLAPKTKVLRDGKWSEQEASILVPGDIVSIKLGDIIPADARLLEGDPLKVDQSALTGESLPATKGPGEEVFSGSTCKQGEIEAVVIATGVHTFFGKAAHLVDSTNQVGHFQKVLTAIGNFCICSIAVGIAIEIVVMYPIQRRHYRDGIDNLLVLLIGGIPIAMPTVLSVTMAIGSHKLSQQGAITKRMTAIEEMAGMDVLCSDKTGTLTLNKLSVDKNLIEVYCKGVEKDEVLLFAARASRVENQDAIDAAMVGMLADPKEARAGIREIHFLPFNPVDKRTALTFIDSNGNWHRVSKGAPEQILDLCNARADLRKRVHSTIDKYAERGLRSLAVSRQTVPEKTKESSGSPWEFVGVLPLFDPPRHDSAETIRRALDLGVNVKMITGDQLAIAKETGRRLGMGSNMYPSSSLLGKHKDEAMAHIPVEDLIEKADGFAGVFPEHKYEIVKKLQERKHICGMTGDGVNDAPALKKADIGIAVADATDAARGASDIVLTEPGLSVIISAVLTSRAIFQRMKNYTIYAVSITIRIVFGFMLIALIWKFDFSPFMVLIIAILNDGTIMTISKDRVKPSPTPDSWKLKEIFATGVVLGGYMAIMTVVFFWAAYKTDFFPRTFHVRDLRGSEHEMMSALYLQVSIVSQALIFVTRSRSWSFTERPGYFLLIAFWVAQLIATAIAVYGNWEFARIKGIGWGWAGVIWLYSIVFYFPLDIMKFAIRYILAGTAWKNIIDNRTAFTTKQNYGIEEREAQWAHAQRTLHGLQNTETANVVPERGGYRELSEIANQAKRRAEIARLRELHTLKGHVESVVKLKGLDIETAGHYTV
UniProt P20649: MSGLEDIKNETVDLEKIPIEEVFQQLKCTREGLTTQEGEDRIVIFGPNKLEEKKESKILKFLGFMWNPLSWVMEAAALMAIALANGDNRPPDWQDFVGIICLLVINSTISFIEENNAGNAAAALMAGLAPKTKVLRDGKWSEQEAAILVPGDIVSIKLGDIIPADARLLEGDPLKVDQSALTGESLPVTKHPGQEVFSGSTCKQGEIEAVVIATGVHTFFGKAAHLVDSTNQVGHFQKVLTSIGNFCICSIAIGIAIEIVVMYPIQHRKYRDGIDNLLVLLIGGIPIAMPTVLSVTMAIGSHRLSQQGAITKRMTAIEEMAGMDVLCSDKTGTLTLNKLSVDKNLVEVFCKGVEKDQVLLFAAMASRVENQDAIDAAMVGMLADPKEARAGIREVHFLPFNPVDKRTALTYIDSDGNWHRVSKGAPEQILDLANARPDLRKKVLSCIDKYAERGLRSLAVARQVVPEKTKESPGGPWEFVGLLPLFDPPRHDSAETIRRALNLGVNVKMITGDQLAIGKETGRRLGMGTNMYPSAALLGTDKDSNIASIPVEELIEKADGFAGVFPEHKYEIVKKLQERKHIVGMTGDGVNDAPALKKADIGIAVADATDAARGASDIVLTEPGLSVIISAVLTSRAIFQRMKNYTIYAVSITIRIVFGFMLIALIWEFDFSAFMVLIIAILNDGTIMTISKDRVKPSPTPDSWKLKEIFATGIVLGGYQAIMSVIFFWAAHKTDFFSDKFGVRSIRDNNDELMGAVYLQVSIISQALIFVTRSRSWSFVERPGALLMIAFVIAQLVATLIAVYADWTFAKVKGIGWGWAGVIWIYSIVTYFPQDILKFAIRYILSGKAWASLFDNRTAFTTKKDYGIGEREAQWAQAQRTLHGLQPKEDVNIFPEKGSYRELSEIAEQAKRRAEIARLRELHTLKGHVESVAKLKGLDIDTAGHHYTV
UniProt P19456: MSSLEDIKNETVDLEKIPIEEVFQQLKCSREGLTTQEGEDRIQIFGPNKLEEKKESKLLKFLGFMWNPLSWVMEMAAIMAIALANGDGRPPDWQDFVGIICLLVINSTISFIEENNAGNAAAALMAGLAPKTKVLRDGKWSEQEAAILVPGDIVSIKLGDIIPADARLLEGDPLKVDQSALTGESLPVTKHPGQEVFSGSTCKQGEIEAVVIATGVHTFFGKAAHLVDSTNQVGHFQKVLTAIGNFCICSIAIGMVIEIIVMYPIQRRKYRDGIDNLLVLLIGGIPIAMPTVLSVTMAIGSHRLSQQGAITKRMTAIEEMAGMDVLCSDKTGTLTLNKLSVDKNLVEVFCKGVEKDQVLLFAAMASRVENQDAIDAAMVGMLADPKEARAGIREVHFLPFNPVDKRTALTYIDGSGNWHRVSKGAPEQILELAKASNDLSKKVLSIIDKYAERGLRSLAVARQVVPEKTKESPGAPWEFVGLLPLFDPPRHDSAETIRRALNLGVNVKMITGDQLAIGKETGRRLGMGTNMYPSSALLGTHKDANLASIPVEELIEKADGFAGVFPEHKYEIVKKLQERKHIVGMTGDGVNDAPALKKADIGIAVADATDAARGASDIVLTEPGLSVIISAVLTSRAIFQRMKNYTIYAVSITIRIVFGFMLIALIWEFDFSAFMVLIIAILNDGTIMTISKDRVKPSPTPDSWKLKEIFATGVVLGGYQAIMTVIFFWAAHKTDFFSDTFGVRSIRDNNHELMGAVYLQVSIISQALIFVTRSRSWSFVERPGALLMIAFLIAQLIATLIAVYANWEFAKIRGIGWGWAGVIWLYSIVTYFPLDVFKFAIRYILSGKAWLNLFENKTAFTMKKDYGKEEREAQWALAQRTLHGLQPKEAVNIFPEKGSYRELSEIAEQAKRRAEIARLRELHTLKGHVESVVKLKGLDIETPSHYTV
UniProt Q9SUA6: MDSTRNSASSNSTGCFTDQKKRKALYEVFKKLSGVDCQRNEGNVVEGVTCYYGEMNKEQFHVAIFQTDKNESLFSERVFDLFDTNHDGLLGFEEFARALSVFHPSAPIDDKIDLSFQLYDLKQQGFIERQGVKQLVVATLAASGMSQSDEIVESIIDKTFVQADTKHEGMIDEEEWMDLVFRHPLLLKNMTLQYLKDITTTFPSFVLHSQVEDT

What all share (test): two-hybrid; yeast strain AH109; C termini of AHAs in pGBKT7 (BD), full-length SCaBP3 in pGADT7; serial 10-fold dilutions spotted on SD-LW, SD-HLW and SD-HLW + 1 mM 3-AT, 28°C, 3-5 d
Assay [1] addresses C terminus of the PM H+-ATPase AHA10 (Arabidopsis thaliana) (UniProt Q43128).
The target of assay [2] is C terminus of the PM H+-ATPase AHA9 (Arabidopsis thaliana) (UniProt Q42556).
The target of assay [3] is C terminus of the PM H+-ATPase AHA3 (Arabidopsis thaliana) (UniProt P20431).
Assay [4] addresses C terminus of the PM H+-ATPase AHA1 (Arabidopsis thaliana) (UniProt P20649).
Substrate in assay [5]: C terminus of the PM H+-ATPase AHA2 (Arabidopsis thaliana) (UniProt P19456)

No constants are given. Whether binding was seen depends on the method and setting. Binding calls can cover weak binding; strength is not graded here.

With “SOS3-LIKE CALCIUM BINDING PROTEIN3 (SCaBP3) (from UniProt Q9SUA6 1-214)”, the binding entry in assay [1], in assay [2], in assay [3] and in assay [4] was “binds” throughout.

B1: PKS5 (protein, UniProt O22932 1-435)
chain: MPEIEIAAGSGDNNDALFGKYELGKLLGCGAFAKVFHARDRRTGQSVAVKILNKKKLLTNPALANNIKREISIMRRLSHPNIVKLHEVMATKSKIFFAMEFVKGGELFNKISKHGRLSEDLSRRYFQQLISAVGYCHARGVYHRDLKPENLLIDENGNLKVSDFGLSALTDQIRPDGLLHTLCGTPAYVAPEILSKKGYEGAKVDVWSCGIVLFVLVAGYLPFNDPNVMNMYKKIYKGEYRFPRWMSPDLKRFVSRLLDINPETRITIDEILKDPWFVRGGFKQIKFHDDEIEDQKVESSLEAVKSLNAFDLISYSSGLDLSGLFAGCSNSSGESERFLSEKSPEMLAEEVEGFAREENLRMKKKKEEEYGFEMEGQNGKFGIGICISRLNDLLVVVEARRRGGDGDCYKEMWNGKLRVQLIRVCDQTSSTNAAI
On to B1, for which the binding result in assay [5] is reported as “binds”.
